From PubChem BioAssay AID2685 (National Center for Advancing Translational Sciences (NCATS), 2010) come the findings set out here.

Each structure is given as a SMILES string. This is one part of the list. Shown are side measurements of this screen, not its main read-out; they come without a call. Most of these compounds were active or inconclusive in the main read-out, so they are no random draw. Potencies come from curve fits of mixed quality, noted in brackets.

The assay in a line: qHTS Assay for Lipid Storage Modulators in Drosophila S3 Cells.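 As to cell number change: cells counted by Cell Tracker Red CMTPX staining in the red channel.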 To be noted: BODIPY lipid droplet fluorescence, 18-24 h; for cell number change: measured here: cell count max response, cells fed with added oleic acid. Put shortly:
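Laser-scanning cytometry quantifies lipid droplet accumulation (500–530 nm total intensity; droplet/cell object ratio) in oleic acid-fed (400 uM added) Drosophila S3 cells treated with a concentration series. 20 uM Triacsin C defined 100% inhibition.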
On the technique in general: qHTS replaces the single test concentration by a dilution series.

Setting [1] is: measured here: lipid fluorescence (Fed channel) AC50, cells fed with added oleic acid.
The mark [2] stands for this setting: measured here: cell number channel AC50, cells fed with added oleic acid.

For orientation: AC50 means the concentration at which the activity in the assay is half-maximal. A lower AC50 goes with activity at low concentration. Regarding `CC(C)(C)CC(=O)NCCCN1CCOCC1`, the cell number change is -26.1%. The AC50 under setting [1] was 6.51 µM [rising, partial curve, poor fit]. Turning to `CCn1c(N2CCN(S(=O)(=O)c3ccccc3)CC2)nc2ccccc21`, the cell number change is -13.7%. The AC50 under setting [1] is 23.1 µM [falling, partial curve].

`COc1ccc(Cn2nnnc2C(c2cccs2)N2CCN(c3ccc([N+](=O)[O-])cc3)CC2)cc1` (stereo not given): the AC50 under setting [1] is 5.17 µM [rising, full curve]. For `CC1CCc2cc(F)ccc2N1C(=O)CSc1nnc2c(n1)[nH]c1ccccc12` (stereo not given), the cell number change came to 12.6%. The AC50 under setting [1] is 16.4 µM [falling, partial curve, poor fit]. For the molecule `Cc1ccc(Nc2nnc(SCC3CCCCO3)s2)cc1` (stereo not given), the cell number change was determined as 12.7%. On to `CNC(=S)N/N=C/c1cn(CCOc2cccc(OC)c2)c2ccccc12`, for which the cell number change came to 2.24%. The AC50 under setting [1] is 0.58 µM [rising, full curve]. With `O=C(CSc1ccc2c(c1)OCCO2)Nc1ccc2c(c1)OCO2`, the cell number change was determined as 29.2%. Same read-out and setting: to `O=C(COC(=O)c1ccc2ncsc2c1)Nc1ncc(Cl)cc1Cl` belongs 29%; to `Cn1cc([N+](=O)[O-])c(C(=O)NC2CCCCCC2)n1`, 17.6%.

As for `CC(C)(C)c1ccc(-n2ncc3c2CCCC3NC(=O)C2(C(N)=O)CC2)cc1` (stereo not given), the AC50 reads like this: under setting [2], 1.46 µM [falling, partial curve]; under setting [1], 2.91 µM [falling, partial curve]. Consider `COc1ccc(NC(=O)C(=O)N/N=C/c2cc(C)n(-c3cccc(Cl)c3Cl)c2C)c(OC)c1`, for which the cell number change stood at 38.2%. Also, the AC50 under setting [2] was 29.1 µM [rising, single point].

In the case of `O=C(NCc1cccnc1)C1CC(c2ccccc2O)=NO1` (stereo not given), the cell number change came out at 38.5%. Under setting [2], the half-maximal activity concentration (AC50) is 18.4 µM [rising, partial curve, poor fit]. Consider `CCCCOC(=O)c1ccc(NC(=O)C(=O)CC(=O)c2ccc(OC)cc2)cc1`, for which the cell number change was -44.6%. Besides, the AC50 under setting [2] is 29.1 µM [falling, single point]. As for `COc1ccc(NC(=O)C#Cc2ccccc2)cc1OC`, the cell number change was -16.1%. Moreover, the AC50 under setting [1] was 29.1 µM [falling, single point]. Regarding `CC(C)C(C)(C#N)NC(=O)CSc1nc2scc(-c3ccccc3)c2c(=O)[nH]1` (stereo not given), the cell number change was 16%. Besides, under setting [1], the AC50 was 13 µM [rising, partial curve]. `Cc1cccc(Oc2ccc(C(=O)NC3CCSC3=O)cn2)c1C` (stereo not given): the cell number change was -24.9%. Besides, under setting [1], the AC50 was 18.4 µM [falling, partial curve, poor fit]. Take `O=C(Nc1ccccc1)NC(Cc1ccc(O)cc1)C(=O)O` (stereo not given): the cell number change was 7.27%.

In the case of `CCOC(=O)c1sc2nc[nH]c(=O)c2c1C`, the cell number change is -37.8%. The AC50 under setting [2] is 25.9 µM [falling, single point]. Under setting [1], the AC50 is 0.731 µM [falling, full curve, poor fit]. Take `CC1(C)Cc2c(cnn2-c2ccc(F)cc2)C(NC(=O)Cn2cncn2)C1` (stereo not given): the AC50 under setting [1] was 29.1 µM [falling, single point]. Regarding `CCCn1ncc(/C=N/O)c1C`, the cell number change is 9.94%. In addition, the AC50 under setting [1] is 29.1 µM [rising, single point]. With `Cc1ccc(CN2CCNC(=O)C2CC(=O)O)o1` (stereo not given), the cell number change is -42.7%. Also, the AC50 under setting [2] was 3.66 µM [falling, full curve]. For the same molecule, under setting [1], the AC50 was 3.66 µM [falling, full curve].

As for `CCOC(=O)N1CCN(C(=O)CNC(=O)c2nn(-c3ccc(OC)cc3)c(=O)c3ccccc23)CC1`, the cell number change amounted to 70.5%. Also, under setting [2], the AC50 is 10.3 µM [rising, partial curve].

In the case of `O=C(c1ccco1)N1CCN(C(=O)c2oc(=O)c3ccccc3c2-c2ccccc2)CC1`, the cell number change is -4.13%. Besides, the AC50 under setting [1] was 0.651 µM [falling, single point].

With `Cc1ccc(S(=O)(=O)N(C)c2ccc(C(=O)N3CCOCC3)cc2)cc1`, the cell number change came out at 0.794%. Under setting [1], the AC50 was 29.1 µM [rising, single point]. Take `CN(C)S(=O)(=O)c1ccc(C(=O)N(c2ccccn2)c2ccccn2)cc1`: the cell number change was -19.3%. Also, under setting [2], the AC50 was 0.146 µM [falling, full curve, poor fit]. Consider `Cc1nc(NC(=O)/C=C/c2ccccc2)sc1C(=O)Nc1cccc(Cl)c1`, for which the cell number change was found to be 1.95%. For the same molecule, under setting [1], the AC50 was 0.82 µM [rising, full curve, poor fit]. Consider `CCCN(CCO)Cc1ccc(Cl)c(Cl)c1`, for which the cell number change is -6.33%. In addition, the AC50 under setting [1] is 18.4 µM [falling, single point]. For `CC(Nc1cc(N2CCN(S(C)(=O)=O)CC2)ccc1[N+](=O)[O-])c1ccccc1` (stereo not given), the cell number change was determined as 8.57%. Besides, under setting [1], the AC50 is 1.16 µM [falling, single point]. `CC(=O)Nc1ccc(C(=O)OCC(=O)N2CCN(C(=O)c3ccco3)CC2)cc1`: the cell number change is 1.01%. The AC50 under setting [1] is 2.59 µM [rising, partial curve, poor fit].

Regarding `O=C(CCCn1c(SCC(=O)c2ccccc2)nc2ccccc2c1=O)NCC1CCCO1` (stereo not given), the cell number change is 7.91%. Besides, the AC50 under setting [2] was 3.26 µM [falling, single point]. For the same molecule, the AC50 under setting [1] was 1.64 µM [falling, partial curve, poor fit].

As for `C=CSc1sc(Cl)c(N2CCOCC2)c1[N+](=O)[O-]`, the cell number change is -57.9%. The concentration at half-maximal activity (AC50) under setting [2] is 2.59 µM [falling, full curve]. `O=C(CSc1nnc(Cc2cc(=O)[nH]c(=O)[nH]2)n1-c1ccccc1)N1CCCc2ccccc21`: the cell number change is -7.02%. In addition, under setting [1], the AC50 was 6.51 µM [rising, single point]. On to `C#CCOCCOCCOCCNc1nc(N2CCN(C(=O)CCCCCCCCCCNC(=O)[C@H](CCCCN)n3cc(CCCC(=O)O)nn3)CC2)nc(N2CCN(C(=O)CCCCCCCCCCNC(=O)[C@H](CCCCN)n3cc(CCCC(=O)O)nn3)CC2)n1`, for which the cell number change was determined as 25.3%.

As to `COc1cccc(CNC(=O)N2CCN(S(=O)(=O)c3ccc(Cl)cc3)CC2)c1`, the cell number change is 17.1%. As for `CC(C)CC(=O)Nc1ccc(-c2nnn(CC(=O)NCc3ccco3)n2)cc1`, the cell number change is -11.9%. For `CC1(NC(=O)NCc2ccco2)CCS(=O)(=O)C1` (stereo not given), the cell number change was -7.48%. The AC50 under setting [1] is 0.326 µM [falling, full curve, poor fit]. Turning to `c1ccc(-c2cnc(-c3ccccc3)nc2)cc1`, the cell number change is 35.2%. Besides, under setting [2], the AC50 is 9.2 µM [rising, single point]. As for `N#CC1(N2CCN(C(=O)c3ccccc3)CC2)CCCCC1`, the cell number change is -2.62%. Regarding `OC1(C(F)(F)F)CC(O)(C(F)(F)F)n2nc(-c3ccccc3)cc2N1` (stereo not given), the AC50 under setting [2] was 0.146 µM [falling, full curve, poor fit]. In the case of `COc1ccc(S(=O)(=O)N(CC(C)C)CC(C)C)c2cccnc12`, the cell number change was -34.6%. Also, the AC50 under setting [2] is 18.4 µM [falling, single point]. In the case of `CCOC(=O)C(=CNc1cc(C)ccc1C)C(=O)OCC`, the cell number change was -3.67%. In addition, the AC50 under setting [1] is 1.03 µM [rising, full curve]. Take `O=C1CCCN1CCCn1cnc2c([nH]c3ccc(F)cc32)c1=O`: the cell number change is -13.9%. Take `Cc1ccc(O)c(C(=O)c2cnc3c(c2)COc2ccccc2-3)c1`: the cell number change is -38.1%. The AC50 under setting [2] was 18.4 µM [falling, partial curve].

Take `COc1ccc(C(=O)NC(=O)COC(=O)c2ccc(C)o2)cc1`: the cell number change was -46.6%. Moreover, the AC50 under setting [2] was 32.6 µM [falling, single point]. For the molecule `Fc1ccc(CCNC(=S)Nc2ccc(F)c(Cl)c2)cc1`, the cell number change was -52.9%. Under setting [2], the AC50 is 29.1 µM [falling, single point].

With `CC(C)CCNC(=O)C(C)N(Cc1ccc(F)cc1)C(=O)c1ccc(CN2CCCCC2)o1` (stereo not given), the AC50 under setting [1] was 2.06 µM [falling, partial curve].

For the molecule `CCc1ccccc1NC(=O)c1cc(-c2cccs2)on1`, the cell number change worked out at 23.8%. The AC50 under setting [1] was 13 µM [rising, partial curve]. On to `Cn1c(N)c(C(=O)COC(=O)COc2ccc(Cl)cc2)c(=O)n(C)c1=O`, for which the cell number change was -23.8%. Besides, the AC50 under setting [1] is 4.61 µM [rising, full curve].

`CCOc1ccc(C(=O)N2CCN(c3ccccn3)CC2)cc1`: the cell number change is -7.41%. For the molecule `Cc1ccc2c(c1)cc(CN(Cc1ccco1)S(=O)(=O)c1ccccc1)c1nnnn12`, the cell number change turned out to be 64.1%. Under setting [2], the AC50 is 18.4 µM [rising, partial curve]. The AC50 under setting [1] is 1.3 µM [rising, single point]. `COc1ccccc1NC(=O)COn1nnc2ccc(S(=O)(=O)N3CCOCC3)cc21`: the cell number change is -12.6%. Regarding `COc1ccc(C2N(c3cc(Cl)ccc3OC)C(=O)C3CCCN32)cc1` (stereo not given), the cell number change is 43.5%. In addition, the AC50 under setting [2] was 0.13 µM [rising, full curve, poor fit]. Moreover, the AC50 under setting [1] is 16.4 µM [rising, partial curve]. With `COc1ccc(NC(=O)c2cc3ccccc3o2)cc1`, the cell number change is -2.88%. For the same molecule, the AC50 under setting [1] was 0.00461 µM [rising, full curve, poor fit]. `COc1cccc(CNc2ccc(C)c(Cl)c2)c1`: the cell number change was -11.3%. As for `CC(OCCN(C)C)C(=O)C12CC3CC(CC(C3)C1)C2` (stereo not given), the cell number change was -42%. Under setting [2], the AC50 was 11.6 µM [falling, partial curve, poor fit]. For `C=CCNC(=O)/C(C#N)=C/c1ccc(OS(=O)(=O)c2ccc(C)cc2)c(OC)c1`, the cell number change is -31.2%. In addition, the AC50 under setting [2] is 23.1 µM [falling, single point]. The AC50 under setting [1] was 2.31 µM [rising, single point]. As for `COc1ccc(N2CCN(C(C)C(=O)N(C)Cc3ccccc3)CC2)cc1` (stereo not given), the cell number change was determined as 5.71%. As to `COc1ccc(CNC(=O)CCC(=O)c2ccc(C)cc2)cc1OC`, the cell number change worked out at 31%. The same measure, in the same setting: the result for `CCCCOC(=O)C1CCC[C@@H](C)N1` (stereo not given in full) reads 10.5%. For the molecule `O=C(CSc1nccc(-c2ccc(Br)cc2)n1)NCCc1ccccc1`, the cell number change was 28.8%. For the same molecule, under setting [2], the AC50 is 2.59 µM [rising, full curve, poor fit]. Moreover, under setting [1], the AC50 is 16.4 µM [rising, partial curve]. Consider `CCOC(=O)C1CCN(CC(=O)Nc2c(C(=O)OC)[nH]c3cccc(Cl)c23)CC1`, for which the cell number change was -20.6%. Under setting [1], the AC50 was 0.206 µM [rising, full curve, poor fit]. On to `COCc1[nH][nH]c(=O)c1C=Nc1ccc(F)cc1F`, for which the cell number change was -40.4%. In addition, the AC50 under setting [2] was 0.92 µM [falling, full curve]. The AC50 under setting [1] was 0.0206 µM [falling, full curve]. As to `CCOCCc1nnc(NC(=O)Cc2c(F)cccc2Cl)s1`, the cell number change was 114%. Also, the AC50 under setting [2] is 13 µM [rising, partial curve]. The AC50 under setting [1] was 29.1 µM [rising, single point].
